Experimental findings from publication PMC3652857, “A Cryptic Targeting Signal Creates a Mitochondrial FEN1 Isoform with Tailed R-Loop Binding Properties” are described below.

Sequences of proteins named here, by UniProt entry; tags and fusion partners are left off. Residues count along the entry.
UniProt P39748, residues 65-380: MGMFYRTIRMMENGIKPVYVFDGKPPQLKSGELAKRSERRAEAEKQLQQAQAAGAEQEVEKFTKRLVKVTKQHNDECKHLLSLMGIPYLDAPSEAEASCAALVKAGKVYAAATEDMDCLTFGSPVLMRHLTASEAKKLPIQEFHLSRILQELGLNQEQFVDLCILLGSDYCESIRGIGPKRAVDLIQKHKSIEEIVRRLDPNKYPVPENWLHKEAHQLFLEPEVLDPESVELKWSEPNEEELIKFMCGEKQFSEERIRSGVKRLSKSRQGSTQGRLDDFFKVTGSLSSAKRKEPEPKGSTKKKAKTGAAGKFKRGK

These are yes or no findings as the source states them, for the method shown. Binding seen in cells or lysates may run through a third protein. Some binding calls cover weakened binding; strength is not graded here.

The target in assay [1] is FENMIT.F (FLAG-tagged truncated FEN1 starting at M65) (human) (UniProt P39748). Kind of assay: condition: only cells not treated with ethidium bromide; co-IP; lysate of purified mitochondria from FENMIT.F-expressing HEK cells not treated with ethidium bromide (control); anti-FLAG M2 agarose beads, elution with Flag peptide; immunoblot of TFAM.
Assay [2] has the same target. Kind of assay: co-IP; lysate of purified mitochondria from FENMIT.F-expressing HEK cells treated with ethidium bromide (100 ng/ml, 72 h); anti-FLAG M2 agarose beads, elution with Flag peptide; with or without RNase T1 (1000 units; 10 mM Tris pH 7.4, 5 mM EDTA, 300 mM NaCl); immunoblot of TFAM. For orientation: In western blotting, separated proteins are transferred to a membrane and probed.

B1: transcription factor A of mitochondria (TFAM) (protein, UniProt Q00059 43-246)
chain: SSVLASCPKKPVSSYLRFSKEQLPIFKAQNPDAKTTELIRRIAQRWRELPDSKKKIYQDAYRAEWQVYKEEISRFKEQLTPSQIMSLEKEIMDKHLKRKAMTKKKELTLLGKPKRPRSAYNVYVAERFQEAKGDSPQEKLKTVKENWKNLSDSEKELYIQHAKEDETRYHNEMKSWEEQMIEVGRKDLLRRTIKKQRKYGAEEC
With B1, the results for the binding entry in assay [1] and in assay [2] were “no binding” and “binds weakly”, respectively.
